Some of the results follow.
What follows are targets tested with C1=CC=C2C(=C1)C3=NNC4=CC=CC(=C43)C2=O (assay: log2 fold change, soluble protein after heating vs DMSO (PISA); higher = thermal stabilisation; K562 lysate, 10 uM; active = over 0.2 and 3.5 SD of the protein, either way, in both replicates (recomputed)).
Outline: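 Thermal stability, expressed as log-two fold change relative to solvent controls, is given from duplicates. Crude K562 extract in PBS pH 7.4 with 1 mM MgCl2, at 1 mg/mL protein, was treated with 10 μM compound for 30 min and heated in aliquots for 3 min across 48°C-58°C. After pooling, adjustment to 0.5% NP-40 at 4°C and centrifugation at 21,000xg for 90 min, supernatant protein was measured by TMTpro 16plex LC-MS/MS with channel sums equalised.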

Sequences of proteins named here, by UniProt entry; tags and fusion partners are left off. A change or cut given only in a name is not applied to a line headed by its entry.
UniProt Q9NP58: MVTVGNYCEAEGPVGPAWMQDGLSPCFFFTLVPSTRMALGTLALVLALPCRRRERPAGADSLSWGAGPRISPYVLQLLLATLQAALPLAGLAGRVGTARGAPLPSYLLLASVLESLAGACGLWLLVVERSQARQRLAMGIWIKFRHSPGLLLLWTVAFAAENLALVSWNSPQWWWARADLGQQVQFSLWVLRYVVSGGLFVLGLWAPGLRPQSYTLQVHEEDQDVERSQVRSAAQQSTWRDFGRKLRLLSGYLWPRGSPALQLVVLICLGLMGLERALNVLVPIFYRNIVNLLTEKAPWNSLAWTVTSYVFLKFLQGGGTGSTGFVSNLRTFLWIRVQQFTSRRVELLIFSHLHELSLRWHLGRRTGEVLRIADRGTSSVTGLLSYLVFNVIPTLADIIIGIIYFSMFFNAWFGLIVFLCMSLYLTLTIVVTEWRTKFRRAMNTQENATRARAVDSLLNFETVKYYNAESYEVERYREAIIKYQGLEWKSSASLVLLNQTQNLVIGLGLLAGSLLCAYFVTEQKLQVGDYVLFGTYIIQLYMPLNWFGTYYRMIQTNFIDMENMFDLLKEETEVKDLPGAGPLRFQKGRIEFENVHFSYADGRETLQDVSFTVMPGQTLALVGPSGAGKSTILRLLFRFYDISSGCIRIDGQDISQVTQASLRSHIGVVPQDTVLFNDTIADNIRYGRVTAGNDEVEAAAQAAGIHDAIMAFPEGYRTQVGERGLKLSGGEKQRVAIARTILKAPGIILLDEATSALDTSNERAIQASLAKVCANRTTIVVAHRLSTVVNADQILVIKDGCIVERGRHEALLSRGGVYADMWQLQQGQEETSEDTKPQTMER
UniProt Q9NPJ3: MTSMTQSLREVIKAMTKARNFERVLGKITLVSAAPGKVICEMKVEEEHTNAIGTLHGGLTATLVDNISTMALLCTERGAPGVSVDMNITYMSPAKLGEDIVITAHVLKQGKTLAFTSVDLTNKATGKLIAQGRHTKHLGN
UniProt Q9NX38: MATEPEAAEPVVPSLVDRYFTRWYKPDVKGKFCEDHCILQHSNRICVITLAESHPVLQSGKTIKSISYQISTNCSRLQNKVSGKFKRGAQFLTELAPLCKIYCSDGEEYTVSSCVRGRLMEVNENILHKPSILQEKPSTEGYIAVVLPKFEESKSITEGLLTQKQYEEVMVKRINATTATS
UniProt Q99758: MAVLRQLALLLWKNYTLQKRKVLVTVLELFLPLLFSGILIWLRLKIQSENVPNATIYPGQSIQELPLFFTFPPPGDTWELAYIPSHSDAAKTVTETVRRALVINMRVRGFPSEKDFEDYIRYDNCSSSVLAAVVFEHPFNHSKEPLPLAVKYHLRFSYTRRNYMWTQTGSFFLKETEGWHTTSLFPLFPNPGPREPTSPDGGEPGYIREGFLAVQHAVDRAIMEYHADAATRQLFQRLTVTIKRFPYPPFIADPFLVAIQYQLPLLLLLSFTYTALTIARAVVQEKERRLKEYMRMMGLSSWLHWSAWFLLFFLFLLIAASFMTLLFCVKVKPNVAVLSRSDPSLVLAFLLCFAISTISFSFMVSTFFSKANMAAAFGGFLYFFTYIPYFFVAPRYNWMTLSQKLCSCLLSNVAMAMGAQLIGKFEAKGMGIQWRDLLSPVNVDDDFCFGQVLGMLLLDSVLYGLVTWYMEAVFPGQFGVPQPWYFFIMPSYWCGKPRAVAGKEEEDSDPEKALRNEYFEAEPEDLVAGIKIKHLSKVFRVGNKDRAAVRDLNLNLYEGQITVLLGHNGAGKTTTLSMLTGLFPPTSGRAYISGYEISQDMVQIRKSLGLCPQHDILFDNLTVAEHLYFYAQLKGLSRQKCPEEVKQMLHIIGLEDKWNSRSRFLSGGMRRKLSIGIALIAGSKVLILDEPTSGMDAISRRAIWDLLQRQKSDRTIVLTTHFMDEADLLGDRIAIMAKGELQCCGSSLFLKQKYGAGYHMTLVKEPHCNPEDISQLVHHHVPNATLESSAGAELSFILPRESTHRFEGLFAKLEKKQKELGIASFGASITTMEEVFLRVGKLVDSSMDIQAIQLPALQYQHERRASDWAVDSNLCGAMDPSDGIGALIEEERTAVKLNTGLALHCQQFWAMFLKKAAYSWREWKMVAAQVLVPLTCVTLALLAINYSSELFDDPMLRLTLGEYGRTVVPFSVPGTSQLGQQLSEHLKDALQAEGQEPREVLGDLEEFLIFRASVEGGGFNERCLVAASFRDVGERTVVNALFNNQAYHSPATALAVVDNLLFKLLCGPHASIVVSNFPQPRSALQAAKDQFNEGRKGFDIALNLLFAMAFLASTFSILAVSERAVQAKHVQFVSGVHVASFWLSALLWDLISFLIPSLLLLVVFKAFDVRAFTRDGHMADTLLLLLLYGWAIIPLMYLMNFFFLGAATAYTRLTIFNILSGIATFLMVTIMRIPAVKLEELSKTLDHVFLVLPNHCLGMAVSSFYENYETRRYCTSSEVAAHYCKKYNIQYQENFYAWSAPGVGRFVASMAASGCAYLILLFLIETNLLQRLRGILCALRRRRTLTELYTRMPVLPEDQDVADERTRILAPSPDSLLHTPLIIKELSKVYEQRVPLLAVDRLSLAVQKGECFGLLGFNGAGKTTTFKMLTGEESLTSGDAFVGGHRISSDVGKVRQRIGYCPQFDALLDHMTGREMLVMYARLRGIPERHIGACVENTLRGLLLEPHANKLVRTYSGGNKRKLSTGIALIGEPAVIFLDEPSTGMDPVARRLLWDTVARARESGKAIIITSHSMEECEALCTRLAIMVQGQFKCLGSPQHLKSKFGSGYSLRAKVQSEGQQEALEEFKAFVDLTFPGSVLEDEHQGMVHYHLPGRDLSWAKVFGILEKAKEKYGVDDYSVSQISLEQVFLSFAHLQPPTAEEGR
UniProt Q8NFV4: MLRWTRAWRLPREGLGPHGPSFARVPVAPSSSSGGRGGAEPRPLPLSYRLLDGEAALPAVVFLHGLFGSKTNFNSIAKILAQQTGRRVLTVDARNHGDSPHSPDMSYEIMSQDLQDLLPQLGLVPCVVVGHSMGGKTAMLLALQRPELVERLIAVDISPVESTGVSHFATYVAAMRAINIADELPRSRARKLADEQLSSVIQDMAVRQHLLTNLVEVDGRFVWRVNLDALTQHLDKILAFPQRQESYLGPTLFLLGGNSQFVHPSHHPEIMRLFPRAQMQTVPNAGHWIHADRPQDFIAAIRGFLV
UniProt Q6PD74: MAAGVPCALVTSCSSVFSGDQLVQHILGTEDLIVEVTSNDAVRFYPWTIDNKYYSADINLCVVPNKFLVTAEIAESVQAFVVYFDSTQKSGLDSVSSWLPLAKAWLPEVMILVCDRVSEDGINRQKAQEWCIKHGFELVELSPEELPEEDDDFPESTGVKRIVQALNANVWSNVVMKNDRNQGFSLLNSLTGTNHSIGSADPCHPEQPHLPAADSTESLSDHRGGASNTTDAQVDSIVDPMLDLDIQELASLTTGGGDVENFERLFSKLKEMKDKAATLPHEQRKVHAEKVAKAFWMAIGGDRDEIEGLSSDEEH
UniProt O95870: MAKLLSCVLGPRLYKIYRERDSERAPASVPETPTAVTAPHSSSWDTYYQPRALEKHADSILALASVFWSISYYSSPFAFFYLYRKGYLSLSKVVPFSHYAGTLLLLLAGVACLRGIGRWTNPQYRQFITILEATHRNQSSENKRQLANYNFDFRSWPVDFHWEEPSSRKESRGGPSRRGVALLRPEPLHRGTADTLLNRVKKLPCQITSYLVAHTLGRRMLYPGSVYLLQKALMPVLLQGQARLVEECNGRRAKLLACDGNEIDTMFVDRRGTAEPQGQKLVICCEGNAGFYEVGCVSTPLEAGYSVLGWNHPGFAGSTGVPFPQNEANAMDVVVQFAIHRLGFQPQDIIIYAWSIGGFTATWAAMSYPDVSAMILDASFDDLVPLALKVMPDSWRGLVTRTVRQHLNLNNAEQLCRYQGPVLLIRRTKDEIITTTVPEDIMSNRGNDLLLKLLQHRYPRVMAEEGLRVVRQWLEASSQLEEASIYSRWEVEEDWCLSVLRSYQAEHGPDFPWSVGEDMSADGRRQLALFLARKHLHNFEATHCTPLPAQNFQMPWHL
UniProt O00763, whole entry, looked up: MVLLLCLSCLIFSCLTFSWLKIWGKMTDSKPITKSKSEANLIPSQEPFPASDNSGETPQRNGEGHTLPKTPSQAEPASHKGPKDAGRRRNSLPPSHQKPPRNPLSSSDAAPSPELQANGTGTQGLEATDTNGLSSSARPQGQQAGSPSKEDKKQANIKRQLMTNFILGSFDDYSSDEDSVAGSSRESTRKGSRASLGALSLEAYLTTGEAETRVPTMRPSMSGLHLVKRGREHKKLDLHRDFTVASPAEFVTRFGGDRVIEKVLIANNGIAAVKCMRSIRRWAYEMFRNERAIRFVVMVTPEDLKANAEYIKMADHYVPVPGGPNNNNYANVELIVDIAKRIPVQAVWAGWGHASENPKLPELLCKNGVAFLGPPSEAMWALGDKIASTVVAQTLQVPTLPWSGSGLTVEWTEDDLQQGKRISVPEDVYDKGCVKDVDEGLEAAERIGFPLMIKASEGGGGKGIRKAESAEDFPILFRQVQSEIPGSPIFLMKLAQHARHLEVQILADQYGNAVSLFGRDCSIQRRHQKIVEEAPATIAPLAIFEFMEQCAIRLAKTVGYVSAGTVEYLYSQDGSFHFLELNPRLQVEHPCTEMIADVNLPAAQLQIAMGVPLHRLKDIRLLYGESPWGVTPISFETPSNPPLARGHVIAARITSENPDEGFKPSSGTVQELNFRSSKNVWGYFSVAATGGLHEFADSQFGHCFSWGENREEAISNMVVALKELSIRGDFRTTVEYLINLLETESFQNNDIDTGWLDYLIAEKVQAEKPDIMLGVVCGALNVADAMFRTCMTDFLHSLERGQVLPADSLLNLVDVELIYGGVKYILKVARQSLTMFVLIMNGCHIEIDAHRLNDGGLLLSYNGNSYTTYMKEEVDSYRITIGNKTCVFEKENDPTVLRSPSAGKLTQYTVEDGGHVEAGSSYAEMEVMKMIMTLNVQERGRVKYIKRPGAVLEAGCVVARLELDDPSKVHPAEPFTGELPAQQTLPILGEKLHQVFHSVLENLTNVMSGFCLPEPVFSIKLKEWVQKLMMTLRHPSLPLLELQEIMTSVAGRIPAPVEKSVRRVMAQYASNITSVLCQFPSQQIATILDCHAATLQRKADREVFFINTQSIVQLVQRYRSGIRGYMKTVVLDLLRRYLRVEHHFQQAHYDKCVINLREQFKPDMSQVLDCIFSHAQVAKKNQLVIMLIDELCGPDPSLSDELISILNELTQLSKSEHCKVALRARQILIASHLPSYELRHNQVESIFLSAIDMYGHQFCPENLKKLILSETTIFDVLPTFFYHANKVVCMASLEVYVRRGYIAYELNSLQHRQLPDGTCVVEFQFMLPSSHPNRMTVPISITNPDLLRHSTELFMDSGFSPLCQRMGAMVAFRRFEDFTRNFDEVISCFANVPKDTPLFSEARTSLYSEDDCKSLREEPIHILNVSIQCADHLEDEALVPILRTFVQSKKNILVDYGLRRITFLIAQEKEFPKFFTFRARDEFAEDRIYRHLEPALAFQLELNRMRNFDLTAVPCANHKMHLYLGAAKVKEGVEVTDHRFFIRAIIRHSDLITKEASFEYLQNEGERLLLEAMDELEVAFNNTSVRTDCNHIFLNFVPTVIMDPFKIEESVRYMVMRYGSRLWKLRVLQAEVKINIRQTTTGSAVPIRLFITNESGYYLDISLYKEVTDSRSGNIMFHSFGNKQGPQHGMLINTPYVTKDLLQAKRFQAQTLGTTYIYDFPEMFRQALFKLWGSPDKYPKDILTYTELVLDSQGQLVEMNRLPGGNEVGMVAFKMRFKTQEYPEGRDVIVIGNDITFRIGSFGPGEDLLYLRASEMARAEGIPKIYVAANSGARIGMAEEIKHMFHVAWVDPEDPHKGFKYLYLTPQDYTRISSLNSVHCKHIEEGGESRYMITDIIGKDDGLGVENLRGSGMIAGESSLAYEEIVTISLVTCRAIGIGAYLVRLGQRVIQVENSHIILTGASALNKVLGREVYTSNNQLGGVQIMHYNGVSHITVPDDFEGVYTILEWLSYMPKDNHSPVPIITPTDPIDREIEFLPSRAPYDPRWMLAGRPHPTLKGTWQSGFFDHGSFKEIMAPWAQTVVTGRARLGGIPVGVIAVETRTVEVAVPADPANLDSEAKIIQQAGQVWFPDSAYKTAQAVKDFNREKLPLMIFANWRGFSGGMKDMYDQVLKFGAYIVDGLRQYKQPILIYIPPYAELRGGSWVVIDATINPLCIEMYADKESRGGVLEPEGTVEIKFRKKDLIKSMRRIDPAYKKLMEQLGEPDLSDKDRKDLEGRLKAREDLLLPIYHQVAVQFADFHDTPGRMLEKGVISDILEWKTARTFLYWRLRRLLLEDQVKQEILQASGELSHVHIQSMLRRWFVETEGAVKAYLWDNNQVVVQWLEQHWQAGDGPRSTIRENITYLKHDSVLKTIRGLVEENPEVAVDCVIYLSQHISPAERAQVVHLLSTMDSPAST

log2 fold change, inactive:
ACADVL isoform 3 (UniProt P49748) -0.053
ABCC4 (UniProt O15439) -0.046
ABCE1 (UniProt H0Y990) -0.027
ABCE1 (UniProt P61221) 0.038
ABHD5 (UniProt Q8WTS1) -0.135
ACADS (UniProt P16219) -0.046
ACLY (UniProt P53396) -0.018
ABCB6 (UniProt Q9NP58) -0.045
AATF (UniProt Q9NY61) -0.018
ACOT13 (UniProt Q9NPJ3) 0.027
ABI1 isoform 9 (UniProt Q8IZP0) -0.014
ACACA isoform 4 (UniProt Q13085) -0.047
ACBD3 (UniProt Q9H3P7) -0.036
ABITRAM (UniProt Q9NX38) -0.072
ABCB8 (UniProt Q9NUT2) 0.022
ABCC5 (UniProt O15440) -0.248
AARSD1 isoform 3 (UniProt Q9BTE6) -0.017
AASDHPPT (UniProt Q9NRN7) -0.004
ABCA3 (UniProt Q99758) 0.211
ABCC1 (UniProt P33527) -0.003
ABCB7 isoform 2 (UniProt O75027) 0.024
ABCF3 (UniProt Q9NUQ8) -0.065
ACADM isoform 2 (UniProt P11310) -0.032
ABCA4 (UniProt P78363) -0.016
AAK1, A0A096LP25 0.304
ABHD11 (UniProt Q8NFV4) 0.011
AAGAB (UniProt Q6PD74) -0.018
ACBD6 (UniProt Q9BR61) -0.075
ABCF2 isoform 2 (UniProt Q9UG63) -0.042
ABHD16A (UniProt O95870) -0.016
ACCS (UniProt Q96QU6) -0.078
ACACB (UniProt O00763) -0.008

Fetched one by one from the list above, two records:
log2 fold change, inactive:
ABCC4 (UniProt O15439) -0.046
ABCC5 (UniProt O15440) -0.248
